## Binding screen against folded nucleic acids

From ROBIN, a set of small-molecule microarray screens (doi:10.1002/anie.202211358).

Targets (5′ to 3′):
PreQ1: PreQ1 riboswitch RNA pseudoknot, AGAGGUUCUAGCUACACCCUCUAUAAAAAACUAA. From B. subtilis. About 170 hits among about 24,000 compounds.
SAM-II: SAM-II riboswitch RNA pseudoknot, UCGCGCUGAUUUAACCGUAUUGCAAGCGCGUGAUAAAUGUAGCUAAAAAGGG. About 200 hits among about 21,000 compounds.
TPP: TPP riboswitch RNA three-way junction, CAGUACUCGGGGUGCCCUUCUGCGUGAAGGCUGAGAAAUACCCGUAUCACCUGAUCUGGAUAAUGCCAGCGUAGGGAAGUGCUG. About 160 hits among about 24,000 compounds.

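Each compound is printed as two spots on a slide made to bind it covalently, so it has no test concentration; the read-out is fluorescence of the bound, labelled oligonucleotide. The data file lists only calls. An earlier report of the laboratory on the PreQ1, TPP and SAM-II riboswitches (doi:10.1038/s41467-019-09493-3) used 1 µM RNA for 2 h and required a mean Z-score above 3 (spot signal-to-noise against the whole library), a score well above that on a control array, and duplicate spots agreeing (coefficient of variation under 100); it then also set aside compounds that hit other targets, which this list keeps. The cut-offs behind this list may differ. These are primary screening calls, not affinities; a compound without a hit may have attached poorly or may still bind in solution.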 A compound is marked hit if it was called a hit and no hit if it was screened but was not. This is an unselected part of the compounds tested. A target missing from an entry has no call listed here.

With COc1cccc(-c2cnc(NCc3c(F)cccc3Cl)n2C)c1 the screen gave PreQ1: no hit; SAM-II: no hit; TPP: no hit.
With Cc1nc(N2CCN(C)CC2)ncc1C(=O)N1C[C@H]2C[C@H](O)[C@@H](O)C[C@H]2C1 the screen gave PreQ1: no hit; SAM-II: no hit; TPP: no hit.
With Nc1nc(=O)c2ncn(C3CCCC3)c2[nH]1 the screen gave PreQ1: no hit; SAM-II: no hit; TPP: no hit.
With Cc1nn(CC(=O)NCCCc2nnc(N)s2)c(=O)n1-c1ccccc1 the screen gave PreQ1: no hit; SAM-II: no hit; TPP: no hit.
With Cc1ccc(-c2c(NCc3ccccn3)c(=O)c2=O)cc1 the screen gave PreQ1: no hit; TPP: no hit.
With Cc1cc(-c2ccc(-c3cnc(N)[nH]3)cc2)ccn1 the screen gave PreQ1: no hit; SAM-II: no hit; TPP: no hit.
With NCC1CCCCN1Cc1cn(-c2ccccc2)nn1 (centres undefined) the screen gave PreQ1: no hit; SAM-II: no hit; TPP: no hit.
With COc1ccc2c(CNCCc3ccccc3Cl)c(C(=O)O)n(C)c2c1 the screen gave PreQ1: no hit; TPP: no hit.
With Cc1cccnc1C(C)NC(=O)CSc1nc(N)n[nH]1 (centres undefined) the screen gave PreQ1: no hit; SAM-II: no hit; TPP: no hit.
With O=[N+]([O-])c1cnc(Sc2ccncn2)s1 the screen gave PreQ1: no hit; SAM-II: no hit; TPP: no hit.
With CCOC(=O)N1CCC(Nc2c(N3CCN(c4cccc(OC)c4)CC3)c(=O)c2=O)CC1 the screen gave PreQ1: no hit; TPP: no hit.
With O=S(=O)(c1ccc2ccccc2c1)N1CCOC2(CNCCOC2)C1 (centres undefined) the screen gave PreQ1: no hit; SAM-II: no hit; TPP: no hit.
With OCCn1nc(C2CC2)nc1CCc1ccc(-c2ccccc2)cc1 the screen gave PreQ1: no hit; SAM-II: no hit; TPP: no hit.
With Cn1c(=O)c2c(-c3ccccc3)n(-c3ccccc3N)cc2n(C)c1=O the screen gave PreQ1: no hit; SAM-II: no hit; TPP: no hit.
With CC(NCCc1csc(-c2cccnc2)n1)C(=O)NC1CCCC1 (centres undefined) the screen gave PreQ1: no hit; SAM-II: no hit; TPP: no hit.
With Cc1ccsc1CNc1cccc(C(=O)Nn2cnnc2)c1 the screen gave PreQ1: no hit; SAM-II: no hit; TPP: no hit.
With Cc1c(C(=O)NCCc2csc(N)n2)oc2c(F)cccc12 the screen gave PreQ1: no hit; SAM-II: no hit; TPP: no hit.
With CCNc1oc(-c2ccc(S(=O)(=O)N3CCCC3)cc2)nc1C#N the screen gave PreQ1: no hit; TPP: no hit.
With CCOc1ccc(Oc2nc(NCC(C)C)nc(OC)n2)nn1 the screen gave PreQ1: no hit; SAM-II: no hit; TPP: no hit.
With C[C@@]1(O)CCN(C(=O)Cn2cc(C(F)(F)F)ccc2=O)C[C@@H]1O the screen gave PreQ1: no hit; SAM-II: no hit; TPP: no hit.
With Nc1cc(-n2cnnc2)ccc1F the screen gave PreQ1: no hit; SAM-II: no hit; TPP: no hit.
With Cn1c(C2=C(N)N(c3cc(Cl)cc(Cl)c3)CC2=O)nc2ccccc21 the screen gave PreQ1: no hit; TPP: no hit.
With O=C1C(Nc2ccccc2)=CC(c2ccc(Br)cc2)N1c1ccccc1 (centres undefined) the screen gave PreQ1: no hit; SAM-II: no hit; TPP: no hit.
With Cc1cc(C)c(CN(CCN2CCOCC2)Cc2ccco2)c(C)c1CO the screen gave PreQ1: no hit; SAM-II: no hit; TPP: no hit.
With Nc1nnc(SCc2ccc(Cl)cc2)s1 the screen gave PreQ1: no hit; SAM-II: no hit; TPP: no hit.
With O=C(C1CC1)N1CC[C@@H](Cn2c(-c3ccc(-c4ccc5occc5c4)cc3)nc3cnccc32)C1 the screen gave PreQ1: no hit; SAM-II: no hit; TPP: no hit.
With COc1cc(C=CC(=O)N2CCN(CC(O)COc3ccccc3)CC2)cc(OC)c1OC.Cl (centres undefined) the screen gave PreQ1: no hit; SAM-II: no hit; TPP: no hit.
With COc1ccc(CCNc2cc(C)nc3c(-c4ccc(Cl)cc4)cnn23)cc1OC the screen gave PreQ1: no hit; TPP: no hit.
With CC(C)Nc1nc(-c2ccccc2)nc(-n2ccnc2)n1 the screen gave PreQ1: no hit; SAM-II: no hit; TPP: no hit.
With Cc1ccccc1CNC(=O)CN1CCOCC(O)C1 (centres undefined) the screen gave PreQ1: no hit; SAM-II: no hit; TPP: no hit.

For reference, 4 entries once more:

{"structure": "Cn1c(C2=C(N)N(c3cc(Cl)cc(Cl)c3)CC2=O)nc2ccccc21", "PreQ1": "no hit", "TPP": "no hit"}
{"structure": "Cc1cc(-c2ccc(-c3cnc(N)[nH]3)cc2)ccn1", "PreQ1": "no hit", "SAM-II": "no hit", "TPP": "no hit"}
{"structure": "OCCn1nc(C2CC2)nc1CCc1ccc(-c2ccccc2)cc1", "PreQ1": "no hit", "SAM-II": "no hit", "TPP": "no hit"}
{"structure": "O=S(=O)(c1ccc2ccccc2c1)N1CCOC2(CNCCOC2)C1", "stereo": "centres undefined", "PreQ1": "no hit", "SAM-II": "no hit", "TPP": "no hit"}